According to publication doi:10.1101/2020.05.09.085852 (bioRxiv, 2020):

Tests used:
[1] = molecular target: T1, YueB (BACTH fusion) (B. subtilis 168) (UniProt O32101); test: two-hybrid
T1 sequence: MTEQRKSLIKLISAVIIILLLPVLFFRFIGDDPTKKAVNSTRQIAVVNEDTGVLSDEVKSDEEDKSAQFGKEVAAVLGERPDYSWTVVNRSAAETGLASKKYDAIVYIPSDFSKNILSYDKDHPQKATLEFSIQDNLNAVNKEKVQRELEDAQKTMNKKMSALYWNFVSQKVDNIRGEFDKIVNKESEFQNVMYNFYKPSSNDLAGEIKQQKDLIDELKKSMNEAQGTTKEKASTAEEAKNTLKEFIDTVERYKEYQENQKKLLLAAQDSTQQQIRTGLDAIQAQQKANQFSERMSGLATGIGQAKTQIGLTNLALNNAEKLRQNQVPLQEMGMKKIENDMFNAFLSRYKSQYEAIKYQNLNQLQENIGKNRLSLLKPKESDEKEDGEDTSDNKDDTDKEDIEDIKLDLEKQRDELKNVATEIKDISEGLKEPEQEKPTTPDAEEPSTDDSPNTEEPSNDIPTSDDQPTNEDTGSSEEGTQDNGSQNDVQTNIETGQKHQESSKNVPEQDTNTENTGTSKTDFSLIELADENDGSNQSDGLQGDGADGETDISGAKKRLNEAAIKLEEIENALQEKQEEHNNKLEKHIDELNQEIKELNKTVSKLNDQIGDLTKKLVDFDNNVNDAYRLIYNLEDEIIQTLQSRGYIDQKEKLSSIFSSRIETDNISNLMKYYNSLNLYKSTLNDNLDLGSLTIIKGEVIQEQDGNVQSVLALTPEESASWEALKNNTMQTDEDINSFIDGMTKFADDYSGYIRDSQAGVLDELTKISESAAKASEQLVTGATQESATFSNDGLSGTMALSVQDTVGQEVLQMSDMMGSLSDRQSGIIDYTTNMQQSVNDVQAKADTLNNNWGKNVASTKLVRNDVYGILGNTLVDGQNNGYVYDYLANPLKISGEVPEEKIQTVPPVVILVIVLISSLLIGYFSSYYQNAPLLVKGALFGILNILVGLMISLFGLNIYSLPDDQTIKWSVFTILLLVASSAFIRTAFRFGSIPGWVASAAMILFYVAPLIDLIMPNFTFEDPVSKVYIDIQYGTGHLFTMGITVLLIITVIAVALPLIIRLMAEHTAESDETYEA

[2] = molecular target: T2, YukC (BACTH fusion) (B. subtilis 168) (UniProt P71070); test: two-hybrid
T2 sequence: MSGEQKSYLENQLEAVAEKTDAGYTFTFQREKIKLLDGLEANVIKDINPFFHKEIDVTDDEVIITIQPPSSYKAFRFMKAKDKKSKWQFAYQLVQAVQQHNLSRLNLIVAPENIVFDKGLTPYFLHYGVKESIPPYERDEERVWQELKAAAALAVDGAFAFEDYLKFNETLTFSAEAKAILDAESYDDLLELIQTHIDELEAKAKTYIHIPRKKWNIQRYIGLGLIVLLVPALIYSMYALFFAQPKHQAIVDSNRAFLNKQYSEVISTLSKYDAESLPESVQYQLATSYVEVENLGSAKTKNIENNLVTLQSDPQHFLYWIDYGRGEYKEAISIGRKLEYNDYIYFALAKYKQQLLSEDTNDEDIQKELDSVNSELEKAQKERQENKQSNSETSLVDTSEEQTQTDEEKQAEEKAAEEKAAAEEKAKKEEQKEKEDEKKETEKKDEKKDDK

**Q.** For “YueBΔ31-817 (BACTH fusion) (from UniProt O32101)”, which binding [1] is on record?
**A.** The binding was “binds”.

**Q.** And the binding [2]?
**A.** The binding was “binds”.

These are yes or no findings as the source states them, for the method shown. Binding calls can cover weak binding; strength is not graded here. Tags and fused reporters may be left off the sequences shown.
